This is one part of the list.
Assays:
Test in all cases: glycan array binding signal (z-score within array); higher = stronger binding
Conditions in all cases: glycan notation: IUPAC condensed, linker removed
[1] = biological target: Neu5Ac(a2-6)Gal(b1-4)GlcNAc(b1-2)Man(a1-3)[GlcNAc(b1-4)][Neu5Ac(a2-6)Gal(b1-4)GlcNAc(b1-2)Man(a1-6)]Man(b1-4)GlcNAc(b1-4)GlcNAc
Procedure, shortened: (§1)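 From the Consortium for Functional Glycomics database, 3228 arrays were curated, keeping only those whose protein sequence was available. Binding is given as a within-array Z-score averaged across arrays sharing a protein sequence and across linkers. Negative Z-scores can be read as non-binding.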

[2] = biological target: Neu5Ac(a2-6)Gal(b1-4)GlcNAc(b1-2)Man(a1-3)[Man(a1-6)]Man(b1-4)GlcNAc(b1-4)GlcNAc
Procedure, shortened: as §1

[3] = biological target: Neu5Ac(a2-6)Gal(b1-4)GlcNAc(b1-2)Man(a1-3)[Neu5Ac(a2-3)Gal(b1-4)GlcNAc(b1-2)Man(a1-6)]Man(b1-4)GlcNAc(b1-4)GlcNAc
Procedure, shortened: as §1

[4] = biological target: Neu5Ac(a2-6)Gal(b1-4)GlcNAc(b1-2)Man(a1-3)[Neu5Ac(a2-6)Gal(b1-4)GlcNAc(b1-2)Man(a1-6)]Man(b1-4)GlcNAc(b1-4)GlcNAc
Procedure, shortened: as §1

[5] = biological target: Neu5Ac(a2-6)Gal(b1-4)GlcNAc(b1-2)Man(a1-3)[Neu5Ac(a2-6)Gal(b1-4)GlcNAc(b1-2)Man(a1-6)]Man(b1-4)GlcNAc(b1-4)[Fuc(a1-6)]GlcNAc
Procedure, shortened: as §1

[6] = biological target: Neu5Ac(a2-6)Gal(b1-4)GlcNAc(b1-2)Man(a1-6)Man(b1-4)GlcNAc(b1-4)GlcNAc
Procedure, shortened: as §1

[7] = biological target: Neu5Ac(a2-6)Gal(b1-4)GlcNAc(b1-2)Man(a1-6)[Gal(b1-4)GlcNAc(b1-2)Man(a1-3)]Man(b1-4)GlcNAc(b1-4)GlcNAc
Procedure, shortened: as §1

[8] = biological target: Neu5Ac(a2-6)Gal(b1-4)GlcNAc(b1-2)Man(a1-6)[GlcNAc(b1-2)Man(a1-3)]Man(b1-4)GlcNAc(b1-4)GlcNAc
Procedure, shortened: as §1

[9] = biological target: Neu5Ac(a2-6)Gal(b1-4)GlcNAc(b1-2)Man(a1-6)[Man(a1-3)]Man(b1-4)GlcNAc(b1-4)GlcNAc
Procedure, shortened: as §1

[10] = biological target: Neu5Ac(a2-6)Gal(b1-4)GlcNAc(b1-2)[Neu5Ac(a2-6)Gal(b1-4)GlcNAc(b1-4)]Man(a1-3)[GlcNAc(b1-4)][Neu5Ac(a2-6)Gal(b1-4)GlcNAc(b1-2)[Neu5Ac(a2-6)Gal(b1-4)GlcNAc(b1-6)]Man(a1-6)]Man(b1-4)GlcNAc(b1-4)GlcNAc
Procedure, shortened: as §1

[11] = biological target: Neu5Ac(a2-6)Gal(b1-4)GlcNAc(b1-2)[Neu5Ac(a2-6)Gal(b1-4)GlcNAc(b1-4)]Man(a1-3)[GlcNAc(b1-4)][Neu5Ac(a2-6)Gal(b1-4)GlcNAc(b1-4)Man(a1-6)]Man(b1-4)GlcNAc(b1-4)GlcNAc
Procedure, shortened: as §1

[12] = biological target: Neu5Ac(a2-6)Gal(b1-4)GlcNAc(b1-2)[Neu5Ac(a2-6)Gal(b1-4)GlcNAc(b1-6)]Man(a1-6)[Neu5Ac(a2-6)Gal(b1-4)GlcNAc(b1-2)Man(a1-3)][GlcNAc(b1-4)]Man(b1-4)GlcNAc(b1-4)GlcNAc
Procedure, shortened: as §1

[13] = biological target: Neu5Ac(a2-6)Gal(b1-4)GlcNAc(b1-3)Gal(b1-3)GlcNAc
Procedure, shortened: as §1

[14] = biological target: Neu5Ac(a2-6)Gal(b1-4)GlcNAc(b1-3)Gal(b1-4)GlcNAc
Procedure, shortened: as §1

[15] = biological target: Neu5Ac(a2-6)Gal(b1-4)GlcNAc(b1-3)Gal(b1-4)GlcNAc(b1-2)Man(a1-3)[Neu5Ac(a2-6)Gal(b1-4)GlcNAc(b1-3)Gal(b1-4)GlcNAc(b1-2)Man(a1-6)]GalNAc
Procedure, shortened: as §1

[16] = biological target: Neu5Ac(a2-6)Gal(b1-4)GlcNAc(b1-3)Gal(b1-4)GlcNAc(b1-3)Gal(b1-4)GlcNAc
Procedure, shortened: as §1

[17] = biological target: Neu5Ac(a2-6)Gal(b1-4)GlcNAc(b1-3)Gal(b1-4)GlcNAc(b1-3)Gal(b1-4)GlcNAc(b1-2)Man(a1-3)[Neu5Ac(a2-6)Gal(b1-4)GlcNAc(b1-3)Gal(b1-4)GlcNAc(b1-3)Gal(b1-4)GlcNAc(b1-2)Man(a1-6)]GalNAc
Procedure, shortened: as §1

[18] = biological target: Neu5Ac(a2-6)Gal(b1-4)GlcNAc(b1-3)Gal(b1-4)GlcNAc(b1-3)GalNAc
Procedure, shortened: as §1

[19] = biological target: Neu5Ac(a2-6)Gal(b1-4)GlcNAc(b1-3)Gal(b1-4)GlcNAc(b1-3)[Neu5Ac(a2-6)Gal(b1-4)GlcNAc(b1-3)Gal(b1-4)GlcNAc(b1-6)]GalNAc
Procedure, shortened: as §1

[20] = biological target: Neu5Ac(a2-6)Gal(b1-4)GlcNAc(b1-3)Gal(b1-4)GlcNAc(b1-6)[Gal(b1-3)]GalNAc
Procedure, shortened: as §1

[21] = biological target: Neu5Ac(a2-6)Gal(b1-4)GlcNAc(b1-3)Gal(b1-4)[Fuc(a1-3)]GlcNAc(b1-3)Gal(b1-4)[Fuc(a1-3)]GlcNAc
Procedure, shortened: as §1

[22] = biological target: Neu5Ac(a2-6)Gal(b1-4)GlcNAc(b1-3)GalNAc
Procedure, shortened: as §1

[23] = biological target: Neu5Ac(a2-6)Gal(b1-4)GlcNAc(b1-3)[Neu5Ac(a2-6)Gal(b1-4)GlcNAc(b1-6)]GalNAc
Procedure, shortened: as §1

[24] = biological target: Neu5Ac(a2-6)Gal(b1-4)GlcNAc(b1-6)GalNAc
Procedure, shortened: as §1

[25] = biological target: Neu5Ac(a2-6)Gal(b1-4)GlcNAc(b1-6)[Gal(b1-3)GlcNAc(b1-3)]Gal(b1-4)Glc
Procedure, shortened: as §1

[26] = biological target: Neu5Ac(a2-6)Gal(b1-4)GlcNAc(b1-6)[Gal(b1-3)]GalNAc
Procedure, shortened: as §1

[27] = biological target: Neu5Ac(a2-6)Gal(b1-4)GlcNAc6S
Procedure, shortened: as §1

Neu5Ac(a2-6)GalNAc = biological target: Neu5Ac(a2-6)GalNAc
Procedure, shortened: as §1

[28] = biological target: Neu5Ac(a2-6)GalNAc(b1-4)GlcNAc
Procedure, shortened: as §1

[29] = biological target: Neu5Ac(a2-6)GalNAc(b1-4)GlcNAc6S
Procedure, shortened: as §1

[30] = biological target: Neu5Ac(a2-6)GlcNAc(b1-4)GlcNAc
Procedure, shortened: as §1

B1: AFL6 (Aspergillus fumigatus), Q4WKJ1 (protein)
chain: MSFHLTAEDIRIEDGHRLVARLRNADGDLQDASIDLNTCLGNDNGHFQWDGVDFSHSAQDVHFAIEGGGQVPVLRAQLANQDGEFQDADVNLSERIENINGEFVFH
[1]
  glycan array binding signal (z-score): -0.394
[2]
  glycan array binding signal (z-score): -0.362
[3]
  glycan array binding signal (z-score): -0.35
[4]
  glycan array binding signal (z-score): 0.163
[5]
  glycan array binding signal (z-score): 0.747
[6]
  glycan array binding signal (z-score): 0.117
[7]
  glycan array binding signal (z-score): -0.991
[8]
  glycan array binding signal (z-score): -0.483
[9]
  glycan array binding signal (z-score): 0.16
[10]
  glycan array binding signal (z-score): -0.213
[11]
  glycan array binding signal (z-score): -0.275
[12]
  glycan array binding signal (z-score): -0.213
[13]
  glycan array binding signal (z-score): 1.09
[14]
  glycan array binding signal (z-score): -0.666
[15]
  glycan array binding signal (z-score): 0.521
[16]
  glycan array binding signal (z-score): 0.271
[17]
  glycan array binding signal (z-score): 3.09
[18]
  glycan array binding signal (z-score): -0.001
[19]
  glycan array binding signal (z-score): 1.6
[20]
  glycan array binding signal (z-score): -0.31
[21]
  glycan array binding signal (z-score): 0.009
[22]
  glycan array binding signal (z-score): 0.093
[23]
  glycan array binding signal (z-score): 0.105
[24]
  glycan array binding signal (z-score): 0.248
[25]
  glycan array binding signal (z-score): 0.854
[26]
  glycan array binding signal (z-score): -0.544
[27]
  glycan array binding signal (z-score): -0.811
Neu5Ac(a2-6)GalNAc
  glycan array binding signal (z-score): -0.394
[28]
  glycan array binding signal (z-score): -0.522
[29]
  glycan array binding signal (z-score): -0.406
[30]
  glycan array binding signal (z-score): -0.135
